# Some of the results follow. Repeats are few or missing, and single values can be far off.
# Experiments:
# Experiment in all cases: 1H chemical shift perturbation upon RNA addition; higher = stronger binding
# Conditions in all cases: RNA concentration 10 µM; fragment concentration 200 µM; 293 K
# [1] = tested on: SARS-CoV-2 3'-UTR RNA
# [2] = tested on: SARS-CoV-2 3_SL1 RNA
# [3] = tested on: SARS-CoV-2 3_SL1+2 RNA
# [4] = tested on: SARS-CoV-2 3_SL2 RNA
# [5] = tested on: SARS-CoV-2 3_SL3base RNA
# [6] = tested on: SARS-CoV-2 3_s2m RNA
# [7] = tested on: SARS-CoV-2 5_SL1 RNA
# [8] = tested on: SARS-CoV-2 5'-UTR RNA
# [9] = tested on: SARS-CoV-2 5_SL4 RNA
# [10] = tested on: SARS-CoV-2 5_SL1234 RNA
structure (smiles),measurement,setting,value
CCNC1CCN(c2ccncc2)CC1,1H chemical shift perturbation upon RNA addition,[1],6 Hz
same,1H chemical shift perturbation upon RNA addition,[2],6 Hz
same,1H chemical shift perturbation upon RNA addition,[3],21 Hz
same,1H chemical shift perturbation upon RNA addition,[4],11 Hz
same,1H chemical shift perturbation upon RNA addition,[5],10 Hz
same,1H chemical shift perturbation upon RNA addition,[6],12 Hz
same,1H chemical shift perturbation upon RNA addition,[7],9 Hz
COc1ccc(NC(=O)Nc2cccs2)cn1,1H chemical shift perturbation upon RNA addition,[1],3 Hz
CN1CCN(c2ccc(C#N)cc2)CC1,1H chemical shift perturbation upon RNA addition,[1],8 Hz
CNC(=O)c1ccccc1NC(=O)c1ccco1,1H chemical shift perturbation upon RNA addition,[1],7 Hz
same,1H chemical shift perturbation upon RNA addition,[5],10 Hz
same,1H chemical shift perturbation upon RNA addition,[8],7 Hz
c1cc(-c2ccc3c(c2)OCO3)n[nH]1,1H chemical shift perturbation upon RNA addition,[1],6 Hz
same,1H chemical shift perturbation upon RNA addition,[5],7 Hz
same,1H chemical shift perturbation upon RNA addition,[8],6 Hz
Cc1cc(C(=O)Nc2ccc3[nH]ccc3c2)no1,1H chemical shift perturbation upon RNA addition,[1],6 Hz
same,1H chemical shift perturbation upon RNA addition,[5],7 Hz
Oc1ccc(CN2CCCC2)c2cccnc12,1H chemical shift perturbation upon RNA addition,[1],8 Hz
same,1H chemical shift perturbation upon RNA addition,[5],12 Hz
same,1H chemical shift perturbation upon RNA addition,[8],19 Hz
NC(=O)c1cc(N2CCCC2)ccn1,1H chemical shift perturbation upon RNA addition,[1],8 Hz
same,1H chemical shift perturbation upon RNA addition,[3],7 Hz
same,1H chemical shift perturbation upon RNA addition,[5],19 Hz
same,1H chemical shift perturbation upon RNA addition,[6],8 Hz
same,1H chemical shift perturbation upon RNA addition,[8],23 Hz
same,1H chemical shift perturbation upon RNA addition,[9],7 Hz
CC(C)c1ccc(C(=O)Nc2nncs2)cc1,1H chemical shift perturbation upon RNA addition,[1],8 Hz
COc1ccc(Nc2ncnc3[nH]cnc23)cc1,1H chemical shift perturbation upon RNA addition,[1],9 Hz
same,1H chemical shift perturbation upon RNA addition,[5],8 Hz
CCc1nc(-c2ccc(Cl)cc2)no1,1H chemical shift perturbation upon RNA addition,[1],12 Hz
Cc1ccc(-c2noc(CNC(C)C)n2)cc1,1H chemical shift perturbation upon RNA addition,[1],8 Hz
same,1H chemical shift perturbation upon RNA addition,[5],15 Hz
c1cnc(N2CCC3(CCOC3)C2)cn1 (centres undefined),1H chemical shift perturbation upon RNA addition,[1],2 Hz
CC(=O)c1ccc(NC(=O)CN2CCCC2)cc1,1H chemical shift perturbation upon RNA addition,[1],13 Hz
same,1H chemical shift perturbation upon RNA addition,[3],13 Hz
same,1H chemical shift perturbation upon RNA addition,[4],6 Hz
same,1H chemical shift perturbation upon RNA addition,[5],23 Hz
same,1H chemical shift perturbation upon RNA addition,[6],9 Hz
same,1H chemical shift perturbation upon RNA addition,[8],2 Hz
same,1H chemical shift perturbation upon RNA addition,[7],8 Hz
NC(=O)c1ccnc(NC2CC=CC2)c1,1H chemical shift perturbation upon RNA addition,[1],17 Hz
same,1H chemical shift perturbation upon RNA addition,[3],9 Hz
same,1H chemical shift perturbation upon RNA addition,[9],6 Hz
Cc1sc2ncnc(N(C)C)c2c1C,1H chemical shift perturbation upon RNA addition,[1],11 Hz
same,1H chemical shift perturbation upon RNA addition,[5],10 Hz
same,1H chemical shift perturbation upon RNA addition,[8],6 Hz
CC(C)NC(=O)c1ccc2ccccc2n1,1H chemical shift perturbation upon RNA addition,[1],7 Hz
N#Cc1ccc(NC(=O)c2cccs2)cc1,1H chemical shift perturbation upon RNA addition,[1],13 Hz
same,1H chemical shift perturbation upon RNA addition,[5],14 Hz
Cc1nccc(N2CCC(N)CC2)n1,1H chemical shift perturbation upon RNA addition,[1],10 Hz
same,1H chemical shift perturbation upon RNA addition,[3],14 Hz
same,1H chemical shift perturbation upon RNA addition,[4],10 Hz
same,1H chemical shift perturbation upon RNA addition,[5],21 Hz
same,1H chemical shift perturbation upon RNA addition,[6],10 Hz
same,1H chemical shift perturbation upon RNA addition,[8],23 Hz
O=C(Nc1cccnc1)c1cnn2cccnc12,1H chemical shift perturbation upon RNA addition,[1],14 Hz
CC(=O)Nc1ccncc1C,1H chemical shift perturbation upon RNA addition,[1],14 Hz
Cc1cc2ncn(CC(N)=O)c2cc1C,1H chemical shift perturbation upon RNA addition,[1],4 Hz
Nc1nccc(-c2ccc(Cl)cc2)n1,1H chemical shift perturbation upon RNA addition,[1],18 Hz
same,1H chemical shift perturbation upon RNA addition,[4],8 Hz
same,1H chemical shift perturbation upon RNA addition,[5],16 Hz
same,1H chemical shift perturbation upon RNA addition,[8],14 Hz
CC(=O)Nc1ccc2[nH]c(=O)[nH]c2c1,1H chemical shift perturbation upon RNA addition,[1],5 Hz
CNc1nccc(OC)n1,1H chemical shift perturbation upon RNA addition,[1],11 Hz
OCc1cn(-c2ccc(Cl)c(Cl)c2)nn1,1H chemical shift perturbation upon RNA addition,[1],16 Hz
same,1H chemical shift perturbation upon RNA addition,[2],1 Hz
same,1H chemical shift perturbation upon RNA addition,[3],10 Hz
same,1H chemical shift perturbation upon RNA addition,[4],6 Hz
same,1H chemical shift perturbation upon RNA addition,[5],13 Hz
same,1H chemical shift perturbation upon RNA addition,[6],5 Hz
same,1H chemical shift perturbation upon RNA addition,[8],6 Hz
same,1H chemical shift perturbation upon RNA addition,[7],11 Hz
same,1H chemical shift perturbation upon RNA addition,[10],7 Hz
same,1H chemical shift perturbation upon RNA addition,[9],5 Hz

# Retrieved one by one from above (5):
structure (smiles),measurement,setting,value
c1cc(-c2ccc3c(c2)OCO3)n[nH]1,1H chemical shift perturbation upon RNA addition,[8],6 Hz
OCc1cn(-c2ccc(Cl)c(Cl)c2)nn1,1H chemical shift perturbation upon RNA addition,[5],13 Hz
CNC(=O)c1ccccc1NC(=O)c1ccco1,1H chemical shift perturbation upon RNA addition,[8],7 Hz
Cc1cc2ncn(CC(N)=O)c2cc1C,1H chemical shift perturbation upon RNA addition,[1],4 Hz
c1cc(-c2ccc3c(c2)OCO3)n[nH]1,1H chemical shift perturbation upon RNA addition,[5],7 Hz
